From PubChem BioAssay AID2685 (National Center for Advancing Translational Sciences (NCATS), 2010) come the findings set out here.

The assay can be described thus: qHTS Assay for Lipid Storage Modulators in Drosophila S3 Cells.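 As to cell number change: cells counted by Cell Tracker Red CMTPX staining in the red channel.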 As to conditions: BODIPY lipid droplet fluorescence, 18-24 h; for cell number change: measured here: cell count max response, cells fed with added oleic acid. In outline:
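Laser-scanning cytometry quantifies lipid droplet accumulation (500–530 nm total intensity; droplet/cell object ratio) in oleic acid-fed (400 uM added) Drosophila S3 cells treated with a concentration series. 20 uM Triacsin C defined 100% inhibition.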
For orientation: In qHTS, concentration-response curves come from the screen itself.

The mark [1] stands for this setting: measured here: cell number channel AC50, cells fed with added oleic acid.
[2] abbreviates: measured here: lipid fluorescence (Fed channel) AC50, cells fed with added oleic acid.

The other results are listed elsewhere or left out. The main result of the screen is listed elsewhere. These columns were measured beside it and carry no call. Most of these compounds were active or inconclusive in the main read-out, so they are no random draw. Potencies come from curve fits of mixed quality, noted in brackets.

Broadly, the AC50 is the concentration giving half of the maximal activity seen.

In the case of `CCCN(CCC)S(=O)(=O)c1ccc(C(=O)Nc2c(C)n(C)n(-c3ccccc3)c2=O)cc1`, the cell number change is -18.3%. In addition, under setting [1], the AC50 was 0.00461 µM [falling, full curve, poor fit]. Also, the half-maximal activity concentration (AC50) under setting [2] was 0.00517 µM [falling, full curve, poor fit].

On to `COc1ccc(C)cc1NC(=O)CSc1nnc(-c2ccco2)n1Cc1ccco1`, for which the cell number change amounted to 103%. In addition, the AC50 under setting [1] was 0.651 µM [rising, full curve]. For the same compound, the AC50 under setting [2] is 3.26 µM [rising, partial curve].

`CN1CCN(c2ccc(NC(=O)c3cccc(OCc4ccccc4)c3)cc2)CC1`: the cell number change worked out at 119%. Also, the concentration at half-maximal activity (AC50) under setting [2] is 29.1 µM [rising, single point].

Turning to `CC1=NN(C(N)=S)C(=O)C1N=Nc1ccc(F)cc1` (stereo not given), the cell number change was 15.3%. For the same compound, the AC50 under setting [2] is 29.1 µM [rising, partial curve, poor fit].

On to `C=C(C)C(=O)OCCCCCCOc1ccc(C(=O)O)cc1`, for which the cell number change was found to be 8.36%. Also, under setting [2], the AC50 was 20.6 µM [falling, partial curve].

For `Clc1ccc(C2=Nn3c(nnc3-c3n[nH]c4c3CCC4)SC2)cc1Cl`, the cell number change is -56.7%. Besides, the AC50 under setting [1] is 18.4 µM [falling, single point]. Further, under setting [2], the AC50 was 29.1 µM [falling, single point].

For `Cc1ccc(CNC(=O)C2CCCN(S(C)(=O)=O)C2)cc1` (stereo not given), the cell number change came to 6.82%.

With `COc1cc(CNC(=O)c2cnc(C)cn2)cc(OC)c1`, the cell number change was 11.4%.

Take `CCOC(=O)C1=C(C)NC(=S)N(C=O)C1c1ccccc1` (stereo not given): the cell number change came to 19.5%. The AC50 under setting [1] is 0.146 µM [rising, full curve, poor fit]. Under setting [2], the concentration at half-maximal activity (AC50) was 0.651 µM [rising, single point].

As for `CCOc1ccc(N2CC(C(=O)NCCc3c[nH]c4ccc(C)cc34)CC2=O)cc1` (stereo not given), the cell number change is -6.3%.

On to `Cc1ccc(S(=O)(=O)NCc2ccc(C(=O)N3CCN(c4ccccc4)CC3)cc2)cc1`, for which the cell number change is -39.4%. Besides, the AC50 under setting [1] is 11.6 µM [falling, partial curve]. Further, under setting [2], the concentration at half-maximal activity (AC50) is 5.17 µM [falling, partial curve].

With `c1ccc2[nH]c(-c3nc4ccccc4[nH]3)nc2c1`, the cell number change was -53.6%. For the same compound, the AC50 under setting [1] was 32.6 µM [falling, single point]. Further, the AC50 under setting [2] is 20.6 µM [falling, single point].

`CCC(C)[C@H](NC(=O)NCCC1=CCCCC1)C(=O)O` (stereo not given in full): the cell number change is -16.4%. In addition, the half-maximal activity concentration (AC50) under setting [2] is 0.259 µM [falling, full curve, poor fit].

Take `COc1ccc(-c2nn(-c3ccccc3)cc2C(=O)N(C)CC(=O)Nc2cccc(F)c2)cc1`: the cell number change was found to be 5.36%.

As to `O=C(CNS(=O)(=O)c1ccccc1)NCC(=O)OCc1ccc(Cl)cc1`, the cell number change is -11%. For the same compound, the half-maximal activity concentration (AC50) under setting [2] is 0.116 µM [falling, full curve].

For the compound `CC1(C)CC(=O)C2=C(C1)O[C@@]1(c3ccsc3)Cc3cc(C#N)ccc3C2O1`, the cell number change amounted to 8.4%. In addition, under setting [1], the AC50 is 0.106 µM [rising, partial curve, poor fit].

For `C/C(=N\O)C(=O)NCc1ccncc1`, the cell number change came to 0.284%. Moreover, the AC50 under setting [2] is 0.103 µM [falling, full curve, poor fit].

On to `CN1CCc2c(OCC(=O)NC3CCCCC3)cccc2C1=O`, for which the cell number change is -4.74%. The AC50 under setting [1] was 6.51 µM [rising, single point].

`O=C1[C@@H]2Cc3c([nH]c4ccccc34)C(c3cccc(Br)c3)N2C(=O)CN1C1CCN(Cc2ccccc2)CC1` (stereo not given in full): the cell number change is -41.9%. The concentration at half-maximal activity (AC50) under setting [1] is 20.6 µM [falling, single point]. The AC50 under setting [2] is 29.1 µM [falling, partial curve, poor fit].

In the case of `Cc1ccc(S(=O)(=O)NCCC(=O)Nc2ncccc2O)cc1C`, the cell number change turned out to be 24.5%.

Consider `COc1ccc(CN2CCN(C(=O)Cn3nc(C)n4cccc4c3=O)CC2)c(OC)c1OC`, for which the cell number change is -13.9%. Besides, the AC50 under setting [2] was 6.51 µM [rising, single point].

Consider `CC(=O)c1cccc(NC(=O)C2CCN(C(=O)c3cccs3)CC2)c1`, for which the cell number change was -2.56%.

For `O=C(Cc1sc(Nc2ccccc2)nc1-c1ccccc1)NCc1ccccc1`, the cell number change was -2.88%. Moreover, the AC50 under setting [2] is 0.0366 µM [rising, full curve, poor fit].

Consider `CN(c1ccccc1)S(=O)(=O)c1ccc(C(=O)Nc2nnc(C3CC3)s2)cc1`, for which the cell number change is -3.7%. For the same compound, under setting [2], the AC50 was 0.146 µM [falling, full curve, poor fit].

Turning to `CSc1nc(-c2ccccc2)nc(N2CCN(C)CC2)c1C(C)=O`, the cell number change is -15.7%. Further, the AC50 under setting [2] is 0.259 µM [rising, full curve].

With `CC(=O)N[C@@H](Cc1c[nH]c2ccccc12)C(=O)OCC(=O)Nc1ccc(Cl)c(S(=O)(=O)N(C)C)c1`, the cell number change was 16.5%. The AC50 under setting [2] was 29.1 µM [rising, single point].

As to `CN1CCN(S(=O)(=O)c2ccc(C(F)(F)F)cc2)C(c2ccccc2)C1` (stereo not given), the cell number change is 2.75%. Also, the AC50 under setting [2] was 0.731 µM [rising, single point].

Take `CCOC(=O)C1=C(C)NC2=C(C(=O)C(C(=O)OCC)C(c3ccc(OC)cc3)C2)C1c1ccccn1` (stereo not given): the cell number change is -32.4%. Further, the half-maximal activity concentration (AC50) under setting [1] was 32.6 µM [falling, single point]. Moreover, the concentration at half-maximal activity (AC50) under setting [2] is 1.16 µM [falling, partial curve].

Regarding `CCn1c(=O)n(CC)c2cc(S(=O)(=O)Nc3cc(C)cc(C)c3C#N)ccc21`, the cell number change was -2.16%. Moreover, the half-maximal activity concentration (AC50) under setting [1] is 1.84 µM [rising, partial curve].

Turning to `CCC(/C=C1\Sc2ccc(OC)cc2N1CC)=C\c1sc2ccc(OC)cc2[n+]1CCCS(=O)(=O)[O-]`, the cell number change is -61.7%. Also, the AC50 under setting [1] was 18.4 µM [falling, single point]. Besides, the AC50 under setting [2] is 18.4 µM [falling, single point].

Regarding `COc1ccc([N+](=O)[O-])cc1C(=O)Nc1ccc(OCC(=O)N2CCOCC2)cc1`, the AC50 under setting [1] was 3.66 µM [rising, single point] and the AC50 under setting [2] is 5.17 µM [rising, partial curve].

Consider `Cc1ccc(Cl)cc1NC(=O)c1ocnc1C`, for which the cell number change worked out at 4.13%. The AC50 under setting [2] is 7.31 µM [falling, single point].

As to `CCCNC(=O)c1ccc(Cl)c(Cl)c1`, the cell number change was -18.2%. Also, the AC50 under setting [2] was 32.6 µM [falling, single point].

For `COc1ccc(/C=C2\SC(=O)N(CCC(=O)NC3CCS(=O)(=O)C3)C2=O)cc1` (stereo not given), the cell number change stood at 2.83%.

For the compound `CC(C)CCNS(=O)(=O)c1ccc(-c2ccc(S(=O)(=O)NCCC(C)C)cc2)cc1`, the cell number change is -28.7%. Also, the half-maximal activity concentration (AC50) under setting [2] is 16.4 µM [falling, partial curve].

In the case of `Cc1cccc(-n2ncc3c2CCCC3NC(=O)C2CCOCC2)c1C` (stereo not given), the cell number change was -17.3%.

Take `O=C(OCC(=O)N(c1ccccc1)C1CCCCC1)c1ccc(CO)cc1`: the cell number change worked out at 8.08%. Further, the AC50 under setting [2] was 1.3 µM [rising, partial curve].

On to `CCn1c(C)c(C2=CCN(S(=O)(=O)c3ccccc3)CC2)c2ccccc21`, for which the AC50 under setting [2] is 29.1 µM [rising, single point].

For the compound `CCCCC(=O)Nc1c2c(nn1-c1ccc(C)cc1)CS(=O)(=O)C2`, the cell number change turned out to be 24.5%. For the same compound, under setting [2], the AC50 was 11.6 µM [rising, single point].

For the compound `CCOC(=O)c1cc(Sc2ccccc2N)cc(C(=O)OCC)n1`, the cell number change was -34.8%. Besides, under setting [1], the half-maximal activity concentration (AC50) is 29.1 µM [falling, single point].

As to `COc1ccc(/C=C/C(=O)c2c(O)ccc3c(C)cc(=O)oc23)cc1`, the cell number change was -8.15%. Under setting [2], the AC50 is 16.4 µM [falling, single point].

Regarding `O=P(Cc1ccncc1)(c1ccccc1)c1ccccc1`, the cell number change was 30.1%. Under setting [1], the AC50 is 8.2 µM [rising, partial curve].

Consider `Cc1ccc(C)c(NC(=O)c2cc(S(=O)(=O)N3CCCCC3)c[nH]2)c1`, for which the cell number change came to 11.7%. For the same compound, under setting [2], the AC50 is 0.082 µM [falling, full curve, poor fit].

`Cn1c(=O)c2c(ncn2CCOc2ccc(Br)cc2)n(C)c1=O`: the cell number change was -38.9%. For the same compound, the AC50 under setting [1] is 0.291 µM [falling, full curve, poor fit].

On to `O=C(c1ccccc1)N(Cc1ccccc1)c1ccccn1`, for which the cell number change amounted to 1.64%.

With `CCN1CCN(CC(=O)c2ccc(OC)cc2)CC1`, the cell number change is -40.7%. In addition, under setting [2], the half-maximal activity concentration (AC50) was 0.0206 µM [falling, full curve, poor fit].

`COC(=O)c1ccccc1NC(=O)c1ccccc1N(C)S(C)(=O)=O`: the concentration at half-maximal activity (AC50) by setting is: under setting [1], 3.26 µM [rising, single point]; under setting [2], 2.91 µM [rising, partial curve].

With `COc1cccc(-n2nnnc2SCC(=O)c2ccc(NC(C)=O)cc2)c1`, the cell number change was 55.4%. The AC50 under setting [1] is 10.3 µM [rising, partial curve]. In addition, the AC50 under setting [2] was 0.58 µM [rising, partial curve].

As for `COC(=O)c1c(-c2ccc(C)cc2)csc1NC(=O)Cc1ccc(OC)c(OC)c1`, the cell number change was 28.1%. Also, the half-maximal activity concentration (AC50) under setting [1] is 0.58 µM [rising, full curve, poor fit]. The AC50 under setting [2] is 2.31 µM [rising, partial curve].

Regarding `Cc1ccc(S(=O)(=O)CCC(=O)OCC(=O)NCC(=O)Nc2c(C)cc(C)cc2C)cc1`, the cell number change worked out at 43.5%. In addition, the AC50 under setting [1] is 32.6 µM [rising, partial curve, poor fit].

Take `NS(=O)(=O)c1ccc(CNC(=O)c2cc(-c3cccnc3)nc3ccc(Cl)cc23)cc1`: the cell number change came to 48.4%. Also, under setting [1], the half-maximal activity concentration (AC50) is 1.84 µM [rising, partial curve, poor fit].

Turning to `CNc1ccc(C(=O)OCC(=O)NCc2ccc3c(c2)OCO3)cc1[N+](=O)[O-]`, the cell number change was 43.8%. Moreover, the AC50 under setting [1] was 20.6 µM [rising, single point]. Further, the AC50 under setting [2] was 0.146 µM [rising, full curve, poor fit].

For `O=c1c2c3c(sc2nc2n1CCC2)CCC3`, the cell number change was -14.3%. Moreover, the concentration at half-maximal activity (AC50) under setting [2] is 0.13 µM [falling, full curve, poor fit].

On to `CN1CCN(C(=O)CCCN2C(=O)/C(=C/c3ccc(Cl)cc3)SC2=S)CC1`, for which the cell number change is -28.5%. Moreover, the AC50 under setting [2] is 1.46 µM [falling, full curve].

For the compound `CCN(CC)C(=O)N1CCc2ccccc21`, the cell number change amounted to 112%.

For the compound `Cc1ccc(-n2[nH]c(C)c(/C=N/c3ccccn3)c2=O)cc1`, the cell number change stood at 37%. Besides, the AC50 under setting [1] was 6.51 µM [rising, full curve, poor fit].

`O=C(Nc1ccc(Cl)cc1)C1CCN(C(=O)c2cccs2)CC1`: the cell number change stood at 18.9%. For the same compound, the concentration at half-maximal activity (AC50) under setting [2] was 0.206 µM [rising, single point].
